From US20230399661A1, “SHUTTLE AGENT PEPTIDES OF MINIMAL LENGTH AND VARIANTS THEREOF ADAPTED FOR TRANSDUCTION OF CAS9-RNP AND OTHER NUCLEOPROTEIN CARGOS” (priority 2020, published 2023)
Some results were stated once for a whole list of compounds, not compound by compound.

System: HeLa cells
Test: Large-scale screening for propidium iodide (PI) transduction activity, flow cytometry
Format: cell-based, Human
Conditions: propidium iodide cargo
Method: HeLa cells were plated (20 000 cells/well) in a 96 well-plate the day prior to the experiment in DMEM containing 10% FBS. Each delivery mix comprising a synthetic peptide shuttle agent (10-30 μM) and the propidium iodide (PI) (10 μg/mL) were prepared and completed to 50 μL with PBS. Cells were washed once with PBS and the shuttle/PI mix was added to the cells and incubated for one minute. Then 100 μL DMEM containing 10% FBS was added to the mix. Cells were then immediately washed once with PBS and incubated in DMEM containing 10% FBS for two hours. Cells were then analyzed by flow cytometry.
A proprietary library of over 300 candidate peptide shuttle agents was screened in parallel for both propidium iodide (PI) and GFP-NLS transduction activity in HeLa cells using flow cytometry as generally described in Example 1.
Due to the large number of peptides screened, negative controls were performed in parallel for each experimental batch and included a “no treatment” (NT) control in which the cells were not exposed to shuttle peptide or cargo, as well as a “cargo alone” control in which cells were exposed to the cargo in the absence of shuttle agent. Results are shown in FIG. 9, in which “transduction efficiency” refers to the percentage of all viable cells that are positive for the cargo (PI or GFP-NLS). “Mean Delivery score” provides a further indication of the total amount of cargo that was delivered per cell, amongst all cargo-positive cells. Mean PI or GFP-NLS delivery score was calculated by multiplying the mean fluorescence intensity (of at least duplicate samples) measured for the viable PI+ or GFP+ cells by the mean percentage of viable PI+ or GFP+ cells, divided by 100,000 for GFP delivery or by 10,000 for PI delivery. The Mean Delivery Scores for PI and GFP-NLS for each candidate shuttle agent was then normalized by dividing by the Mean Delivery Score for the “cargo alone” negative control performed in parallel for each experimental batch. Thus, the “Norm. Mean Delivery Score” in FIG. 9 represents the fold-increase in Mean Delivery Score over the “cargo alone” negative control.

Row | Substance | mean PI transduction efficiency
1 | FSD438: corresponds to FSD10 except for an N-terminal octanoic acid modification (KWKLARAFARAIKKLGGSGGGSYARALRRQARTG; N-terminal octanoic acid; FSD438; (1)..(1) N-ter octanoic acid) | at least 20%
2 | FSD171: corresponds to FSD168 except having an N-terminal acetyl group and a C-terminal cysteamide group (LLKIWSRLIKIWTQGRRLGARAQAR; N-terminal acetyl, C-terminal cysteamide; FSD171; (1)..(1) Acetyl; (25)..(25) Amide; (25)..(25) Cysteamide) | at least 20%
3 | FSD366: candidate peptide shuttle agent (18 aa) (KWKLWSRLLKLWGGGQAR; FSD366) | at least 20%
4 | FSD435: corresponds to FSD395 except for lysine residues (K) being replaced with L-2,4-diaminobutyric acid residues | at least 20%
5 | FSD367: candidate peptide shuttle agent (19 aa) (KWKLLKLWSRLLKGGGQAR; FSD367) | at least 20%
6 | FSD390: candidate peptide shuttle agent (17 aa) (KWKLWSKLLKLWSKLWK; FSD390) | at least 20%
7 | FSD436: corresponds to FSD222 except for phenylalanine residues (F) being replaced with (2-naphthyl)-L-alanine residues | at least 20%

System: CFF-16HBEge cells
Test: Cpf1-RNP delivery, B2M knockout genome editing by flow cytometry
Format: cell-based, Human
Conditions: not given

Row | Substance | genome editing efficiency with Cpf1-RNP
8 | FSD397: synthetic peptide shuttle agent (KLKLAKALAKALKKLGGSGGGSQAKAQAKQAK; FSD397) | greater than 10%
9 | FSD395: synthetic peptide shuttle agent (KLKLLKLLLKLLKKLGGSGGGSQAKAQAKQAK; FSD395) | greater than 10%
10 | FSD10: synthetic peptide shuttle agent; FSD10-15 core, glycine/serine-rich linker and second cationic domain (KWKLARAFARAIKKLGGSGGGSYARALRRQARTG; FSD10) | greater than 10%
11 | FSD322: synthetic peptide shuttle agent (KWKLAKAWSRALKLWGGSGGGSARAQARQA; FSD322) | greater than 10%
